According to patent US20160289678A1, “USE OF MICRORNA 146-A IN THE DIAGNOSIS, TREATMENT AND PREVENTION OF PICORNAVIRUS INFECTION AND MICRORNA 146-A ANTAGONISTS” (priority 2013, published 2016):
For at least one compound, name, drawing or mass did not settle the structure.

What was measured:
Assay type in all cases: cell-based, Human
IRAK1 and TRAF6 = IRAK1 and TRAF6 Western blot in EV71-infected RD cells; details: JNK inhibitor 20 μM before virus infection
AP1 (c-jun/c-fos) = AP1 (c-jun/c-fos) expression in EV71-infected RD cells; details: 20 μM before virus infection
miR-146a = miR-146a expression in EV71-infected RD cells by real-time RT-PCR; details: JNK inhibitor 20 μM before virus infection

SMILES: Oc1c2ccccc2c2c3c(cccc13)N=N2 [SP600125]
- IRAK1 and TRAF6 expression (IRAK1 and TRAF6): restoration
- AP1 expression (AP1 (c-jun/c-fos)): inhibited
- miR-146a expression (miR-146a): suppression
